Assay results published in the supplement of paper PMC10735217.
The list shows a part of the results. This data set is noisy: repeats of one test often differ as much as different tests do.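 The human kidney-derived cells carry a stably integrated construct of eight TEAD-binding elements driving luciferase, read by luminescence in a drug-repurposing library screen. A compound counts as a hit when its signal is more than five robust Z scores above the plate mean.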

System: HEK293A TEAD-LUC reporter
Assay: TEAD-luciferase reporter activity (YAP activation), robust Z score vs plate; higher = stronger YAP/TEAD activation
Details: 24 h

SMILES	TEAD-luciferase reporter activity (compound concentration: 200 nM)	TEAD-luciferase reporter activity (compound concentration: 2 uM)	TEAD-luciferase reporter activity (compound concentration: 10 uM)
CCCCc1nc(Cl)c(CO)n1Cc1ccc(-c2ccccc2-c2nn[nH]n2)cc1 [losartan potassium]	inactive: -2.51	inactive: -1.89	inactive: 2.33
C=CCN1C(=O)CS/C1=N\NC(=S)NC	inactive: -1.37	inactive: -0.577	inactive: -2.76
CC(C)[C@H](N)C(=O)OCC(CO)OCn1cnc2c(O)nc(N)nc21 (some centres undefined) [valganciclovir]	inactive: 0.194		inactive: 2.49
CNC(=O)[C@H](C/C=C/c1ccc(N(C)c2ncccn2)cc1)NC(=O)c1c(Cl)cccc1Cl	inactive: -0.164	inactive: -1.47	inactive: -0.728
CN(CC1(C)CCCO1)S(=O)(=O)c1ccc(Cl)c(S(N)(=O)=O)c1 (centres undefined) [Mefruside]	inactive: 0.256	inactive: 1.18	inactive: 2.26
O=C1NC(=O)C2(CCc3ccccc3C2)N1 (centres undefined)	inactive: -1.5	inactive: 3.43	inactive: 0.074
NC(=O)N(CCO)/N=C/c1ccc([N+](=O)[O-])o1	inactive: 0.129	inactive: -0.257	inactive: 0.922
CN(C)c1ccccc1CSc1cccc(O)c1 [analog of MOXYFETIN]	inactive: 0.215	inactive: 1.88	inactive: -0.252
Nc1cc(-c2ccncc2)c[nH]c1=O [amri]	inactive: -1.14	inactive: -1.71	inactive: -1.47
Cc1nc(O)c(C#N)cc1-c1ccncc1 [milri]		inactive: 0.77	
Nc1nc2c(ncn2[C@H]2C[C@H](O)[C@@H](CO)O2)c(=O)[nH]1 [Deoxyguanosine]		inactive: -0.234	
Nc1nc2c(ncn2[C@H]2C[C@H](O)[C@@H](CO)O2)c(=O)[nH]1	inactive: 0.0744		inactive: -0.291
COC(=O)c1cc2nc([S+]([O-])Cc3ncccc3C)[nH]c2cc1C (centres undefined)	inactive: -0.266	inactive: -0.231	inactive: 0.175
CC1CCN(CCCC(=O)c2ccc(F)cc2)CC1 [Metylperon]	inactive: -0.455		inactive: -1.36
CC1CCN(CCCC(=O)c2ccc(F)cc2)CC1 [melperone]		inactive: -2.05	
OCC1O[C@@H]2OC3C(CO)O[C@@H](OC4C(CO)O[C@@H](OC5C(CO)O[C@H](OC6C(CO)O[C@@H](OC7C(CO)O[C@@H](OC8C(CO)O[C@@H](OC9C(CO)O[C@H](OC1[C@H](O)[C@@H]2O)[C@@H](O)[C@H]9O)[C@@H](O)[C@H]8O)[C@@H](O)[C@H]7O)[C@@H](O)[C@H]6O)[C@@H](O)[C@H]5O)[C@@H](O)[C@H]4O)[C@@H](O)[C@H]3O (some centres undefined)	inactive: 0.335	inactive: -1.97	inactive: 1.79

Single values from the entries so far:
CNC(=O)[C@H](C/C=C/c1ccc(N(C)c2ncccn2)cc1)NC(=O)c1c(Cl)cccc1Cl – TEAD-luciferase reporter activity (compound concentration: 200 nM): inactive: -0.164
Nc1nc2c(ncn2[C@H]2C[C@H](O)[C@@H](CO)O2)c(=O)[nH]1 [Deoxyguanosine] – TEAD-luciferase reporter activity (compound concentration: 2 uM): inactive: -0.234
